Laboratory results from publication PMC8449060, “A fully reversible 25-hydroxy steroid kinase involved in oxygen-independent cholesterol side-chain oxidation” (The Journal of Biological Chemistry, 2021).
Results are given in words; binding and its absence hold for the method and conditions named. Sequences can lack the tags named with a protein.

Molecular target: 25-hydroxy-steroid kinase (25-HSK) from Sterolibacterium denitrificans, recombinant with C-terminal Strep-tag (Sterolibacterium denitrificans)
Test: SEC; gel filtration of recombinant 25-HSK after Strep-Tactin enrichment; native molecular mass 45 ± 5 kDa against 43.3 kDa deduced from the sequence; column and buffer of this run not told; both purified

binding: no binding
B1: 25-hydroxy-steroid kinase (25-HSK) from Sterolibacterium denitrificans, recombinant with C-terminal Strep-tag (enzyme, UniProt A0A7Z7HU23 1-379)
chain: MSDTPDLTQVKTSTRDLAVIQERLTAWMAKTLGPGSEPRLSDVRNPGSAGMSSETLLFEMSWKENGVQKTGSFVGRLPPAEDAFPIFPKYDFPLQVGVMRLVEQRSQVPVPKVLWDEPGSEALGMPFFIMARASGEPLPDLPPYPYGGWLAEATPEEQQRLQNSSVAMIAGIHGVKASAGEVAFLQPKRQDGSLMRRIVDDWKDYYEWAREGLDVPLVNEMAAWLEAHWPANDGGNEGVICWGDARPGNILWENFEPTAVLDWEMATFGPREMDVAWLIFFHKYFQYIAMTLGFPEAPMAGYMKRADIIAEYERLSGVKLQNMDWFLGFCVLRMAMFDVRISQRQLRFGERQPEEDHNNYLFTREIIRKILRGEDPWDF
